Library screen at single concentrations

From ChEMBL document CHEMBL3988442, “University of Dundee, Small-Polar-MMV Screening Library” (2021).

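Assay of Toxoplasma gondii numbers, read through their beta-galactosidase reporter with a colour substrate. Concentration: 50 µM. The record gives no direction; the compounds picked for IC50 retests had high values, so higher reads as fewer parasites. Of about 18,000 compounds tested this way, about 170 (0.94%) reached 50% or more in at least one test.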

The filed quantity is “Percent Effect” (%). The record does not define 0% and 100%; most values in the screen are far below 50% and negative numbers occur (in some assays of this library far below -100). The compounds are a random part of those screened.

* CN1CCOC(CNC(=O)CSCc2ccncc2)C1 (centres undefined) : 3.362%
* CC(C)(CN)C1(O)CCOC1 (centres undefined) : -2.383%
* CCn1ccnc1C1CCN(CC(=O)N(C)C)CC1 : 16.85%
* O=C(CCN1CCOCC1)Nc1cccc(Cl)c1 : 7.887%
* C1CC(C2CNC2)CO1 (centres undefined) : 5.994%
* CC(=O)NCCNS(=O)(=O)c1ccc(C)c(Cl)c1 : 1.468%
* NCc1ccnc(OCC(F)(F)F)c1 : -2.049%
* CCCc1cc(C(N)=O)ccn1 : -0.5402%
* c1c(N2CCCC2)nnc2c1CNCC2 : 5.593%
* NCCc1ccc2[nH]ccc2c1 : 1.082%
* O=S(=O)(Cc1ccc(Cl)cc1Cl)CC(O)CO (centres undefined) : -3.973%
* CCOC(=O)C(C)(O)c1ccc(F)c(F)c1 (centres undefined) : -4.436%
* Cc1cc(C)n(CC(=O)NC(C)(C)C)n1 : -14.46%
* CC(=O)Nc1nc(CC(=O)NCc2ccco2)cs1 : -28.1%
* Brc1cccnc1N1CCN(CC2CCOC2)CC1 (centres undefined) : 0.3302%
* CN(C)C(=O)c1cc(-c2cccs2)on1 : 7.843%
* CCN1C[C@H](NC(=O)c2snnc2C(C)C)[C@@H](OC)C1 : 82.91%
* CC(=O)N(Cc1noc(C(C)C)n1)C1CCNC1 (centres undefined) : -8.71%
* OCc1cc(-c2ccncc2)n[nH]1 : 13.86%
* CNC(=O)C(C)OC(=O)c1cc(C)cc(C)c1 (centres undefined) : -3.882%
* CCCn1cc(C(=O)NCC(F)(F)F)c(C)n1 : -11.73%
* NC(=O)CN1CCCN(C(=O)c2cc(Br)cs2)CC1 : -8.046%
* CSCC(=O)NC1CCCC1 : 3.429%
* CCCC(=O)Nc1cc(=O)n(C)c(=O)n1C : -76.74%
* CC(=O)Nc1cccc(COC(C)=O)c1 : 8.363%
* O=C(NCC1CCNCC1)c1sccc1Br : 2.893%
* CC1(C)CC(=O)CN1C(=O)c1cc(Cl)c2c(c1)OCO2 : 7.211%
* Cn1ncnc1NC(=O)CCc1ccc(F)cc1 : 3.969%
* OCCC1(NCC(F)(F)F)CCOCC1 : 10.57%
* CC1CN(CC(C)(C)O)CCN1 (centres undefined) : -2.58%
* CN(C)C1(CN)Cc2ccccc2C1 : -4.6%
* NC1CCC(=O)c2ccccc21 (centres undefined) : -6.425%
* Cc1ccsc1C(=O)N(CC(C)O)S(C)(=O)=O (centres undefined) : 0.5831%
* COc1cc(NC(=O)Cn2ccnc2)c(OC)cc1Cl : 5.977%
* COCC1(S(=O)(=O)NCc2ccnc(OC)c2)CC1 : 7.773%
* CS(=O)(=O)CC1(CNCc2cccc(C#N)c2)CC1 : 3.658%
* Cc1nc[nH]c1CN1CCCC(N2CCCC2=O)C1 (centres undefined) : -19.48%
* COCc1noc(CCNC(=O)c2cccn2C)n1 : -0.4331%
* O=C1CCN(C(=O)c2ccc3ccccc3n2)CC1 : -16.8%
* CC(=O)c1cc(CN2CCCC2c2nc(C)n[nH]2)cs1 (centres undefined) : 9.305%
* Cc1ccc(CNC(C(N)=O)c2ccccc2)o1 (centres undefined) : 6.297%
* COC(=O)c1cc(C#N)ccc1F : 1.636%
* CN(C)CCOc1cc(N)ccn1 : -4.29%
* COCCN(C)S(=O)(=O)c1cc(F)c(C)cc1F : -2.705%
* Cc1nc(C)c(CC(=O)NCC(C)C)c(=O)[nH]1 : 2.921%
* OCC1(O)CCCN(Cc2ccc3ccccc3n2)C1 (centres undefined) : -9.672%
* CN(C)CC1(CO)CCCN(Cc2c[nH]cn2)C1 (centres undefined) : -2.879%
* Cc1c[nH]c(C(=O)N(C)CCc2noc(C(C)C)n2)n1 : -5.783%
* CCn1ccc(CN2CCOCS2(=O)=O)n1 : 5.033%

The last 6 entries again:

| compound | percent effect |
|---|---|
| `COCCN(C)S(=O)(=O)c1cc(F)c(C)cc1F` | -2.705 |
| `Cc1nc(C)c(CC(=O)NCC(C)C)c(=O)[nH]1` | 2.921 |
| `OCC1(O)CCCN(Cc2ccc3ccccc3n2)C1` (centres undefined) | -9.672 |
| `CN(C)CC1(CO)CCCN(Cc2c[nH]cn2)C1` (centres undefined) | -2.879 |
| `Cc1c[nH]c(C(=O)N(C)CCc2noc(C(C)C)n2)n1` | -5.783 |
| `CCn1ccc(CN2CCOCS2(=O)=O)n1` | 5.033 |